# Assay results: the supplement of paper PMC12819154, “High-throughput peptide-centric local stability assay extends protein–ligand identification to membrane proteins, tissues and bacteria” (Nature Structural & Molecular Biology, 2025)
# Chains of the proteins cited; added tags and fusions are not shown. Lines headed by an entry give the natural chain unless they say otherwise; changes in a name come on top.
# UniProt Q9NVI7: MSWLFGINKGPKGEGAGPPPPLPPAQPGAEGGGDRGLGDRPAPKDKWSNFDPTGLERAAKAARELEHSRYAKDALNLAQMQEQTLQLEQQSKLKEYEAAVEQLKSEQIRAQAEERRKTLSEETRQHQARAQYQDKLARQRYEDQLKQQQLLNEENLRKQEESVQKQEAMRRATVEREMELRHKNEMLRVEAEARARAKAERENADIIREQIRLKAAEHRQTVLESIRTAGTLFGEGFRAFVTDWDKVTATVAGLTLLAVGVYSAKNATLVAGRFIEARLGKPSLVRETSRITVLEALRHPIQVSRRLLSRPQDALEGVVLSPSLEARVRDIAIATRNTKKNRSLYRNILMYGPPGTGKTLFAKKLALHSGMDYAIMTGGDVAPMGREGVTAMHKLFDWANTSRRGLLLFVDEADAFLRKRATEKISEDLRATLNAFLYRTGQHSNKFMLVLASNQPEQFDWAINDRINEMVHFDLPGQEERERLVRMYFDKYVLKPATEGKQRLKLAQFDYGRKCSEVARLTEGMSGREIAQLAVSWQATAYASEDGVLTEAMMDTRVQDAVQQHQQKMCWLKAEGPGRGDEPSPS
# UniProt Q9NRG9: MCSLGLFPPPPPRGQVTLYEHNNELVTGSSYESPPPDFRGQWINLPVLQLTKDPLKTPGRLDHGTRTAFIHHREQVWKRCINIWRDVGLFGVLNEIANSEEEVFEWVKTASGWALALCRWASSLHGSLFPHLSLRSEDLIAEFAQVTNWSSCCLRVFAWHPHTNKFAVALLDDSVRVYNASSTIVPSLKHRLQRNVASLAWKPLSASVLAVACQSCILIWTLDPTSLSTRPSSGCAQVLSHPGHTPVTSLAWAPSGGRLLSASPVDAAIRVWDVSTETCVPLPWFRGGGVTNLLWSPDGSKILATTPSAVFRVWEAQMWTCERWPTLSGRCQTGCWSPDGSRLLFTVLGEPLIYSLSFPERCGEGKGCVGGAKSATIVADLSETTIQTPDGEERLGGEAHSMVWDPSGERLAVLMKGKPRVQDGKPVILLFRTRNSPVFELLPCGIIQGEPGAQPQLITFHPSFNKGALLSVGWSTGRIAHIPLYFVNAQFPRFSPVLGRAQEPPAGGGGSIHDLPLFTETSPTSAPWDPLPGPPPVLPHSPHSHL
# UniProt Q9NR50: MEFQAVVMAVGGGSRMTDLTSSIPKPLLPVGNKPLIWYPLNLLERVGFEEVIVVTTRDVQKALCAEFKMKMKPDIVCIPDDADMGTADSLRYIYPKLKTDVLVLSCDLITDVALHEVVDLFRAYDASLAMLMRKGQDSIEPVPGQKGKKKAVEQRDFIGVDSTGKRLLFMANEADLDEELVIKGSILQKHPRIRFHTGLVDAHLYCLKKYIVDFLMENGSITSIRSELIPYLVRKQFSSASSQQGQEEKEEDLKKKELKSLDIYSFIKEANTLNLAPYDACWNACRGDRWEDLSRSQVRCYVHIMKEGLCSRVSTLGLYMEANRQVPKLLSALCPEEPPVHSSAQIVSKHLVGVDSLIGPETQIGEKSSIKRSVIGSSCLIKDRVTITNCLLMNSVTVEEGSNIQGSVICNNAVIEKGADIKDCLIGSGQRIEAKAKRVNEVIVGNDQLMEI
# UniProt Q9NWK9: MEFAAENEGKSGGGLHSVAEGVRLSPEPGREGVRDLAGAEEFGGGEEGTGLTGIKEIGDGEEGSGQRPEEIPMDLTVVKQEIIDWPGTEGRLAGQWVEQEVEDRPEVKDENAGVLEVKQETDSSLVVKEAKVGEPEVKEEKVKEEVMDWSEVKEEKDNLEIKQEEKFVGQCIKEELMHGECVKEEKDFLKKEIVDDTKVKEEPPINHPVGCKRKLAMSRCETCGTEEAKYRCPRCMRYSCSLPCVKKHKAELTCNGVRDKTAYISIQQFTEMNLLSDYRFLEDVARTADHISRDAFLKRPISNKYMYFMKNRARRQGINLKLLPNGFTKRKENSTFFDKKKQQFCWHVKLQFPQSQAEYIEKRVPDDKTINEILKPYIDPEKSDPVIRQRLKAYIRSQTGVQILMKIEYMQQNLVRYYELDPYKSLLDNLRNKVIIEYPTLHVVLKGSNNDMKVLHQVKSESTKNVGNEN
# UniProt Q9NR19, whole entry: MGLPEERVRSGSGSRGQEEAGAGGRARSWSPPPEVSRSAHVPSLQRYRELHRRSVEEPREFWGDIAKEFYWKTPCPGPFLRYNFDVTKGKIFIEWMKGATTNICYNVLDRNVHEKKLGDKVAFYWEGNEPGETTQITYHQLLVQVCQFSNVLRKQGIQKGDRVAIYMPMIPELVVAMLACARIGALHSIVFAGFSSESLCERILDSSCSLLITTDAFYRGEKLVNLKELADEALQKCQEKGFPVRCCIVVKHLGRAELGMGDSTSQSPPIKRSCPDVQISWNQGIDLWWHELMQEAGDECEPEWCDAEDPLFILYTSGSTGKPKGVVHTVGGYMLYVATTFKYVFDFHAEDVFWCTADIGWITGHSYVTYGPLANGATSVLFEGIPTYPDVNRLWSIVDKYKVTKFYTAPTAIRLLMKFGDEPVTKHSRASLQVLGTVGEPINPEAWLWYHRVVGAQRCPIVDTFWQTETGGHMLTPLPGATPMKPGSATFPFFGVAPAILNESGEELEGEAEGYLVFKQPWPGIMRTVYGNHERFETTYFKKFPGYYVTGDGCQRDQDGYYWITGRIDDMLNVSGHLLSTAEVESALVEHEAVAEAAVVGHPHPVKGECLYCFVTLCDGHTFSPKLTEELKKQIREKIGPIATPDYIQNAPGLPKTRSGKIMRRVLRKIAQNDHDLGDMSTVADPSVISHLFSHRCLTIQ
# UniProt Q9NS18: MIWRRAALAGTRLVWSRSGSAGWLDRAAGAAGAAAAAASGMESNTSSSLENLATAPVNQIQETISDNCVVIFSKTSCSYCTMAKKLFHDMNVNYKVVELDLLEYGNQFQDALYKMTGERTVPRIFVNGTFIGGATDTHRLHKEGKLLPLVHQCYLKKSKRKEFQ
# UniProt Q9NUQ6: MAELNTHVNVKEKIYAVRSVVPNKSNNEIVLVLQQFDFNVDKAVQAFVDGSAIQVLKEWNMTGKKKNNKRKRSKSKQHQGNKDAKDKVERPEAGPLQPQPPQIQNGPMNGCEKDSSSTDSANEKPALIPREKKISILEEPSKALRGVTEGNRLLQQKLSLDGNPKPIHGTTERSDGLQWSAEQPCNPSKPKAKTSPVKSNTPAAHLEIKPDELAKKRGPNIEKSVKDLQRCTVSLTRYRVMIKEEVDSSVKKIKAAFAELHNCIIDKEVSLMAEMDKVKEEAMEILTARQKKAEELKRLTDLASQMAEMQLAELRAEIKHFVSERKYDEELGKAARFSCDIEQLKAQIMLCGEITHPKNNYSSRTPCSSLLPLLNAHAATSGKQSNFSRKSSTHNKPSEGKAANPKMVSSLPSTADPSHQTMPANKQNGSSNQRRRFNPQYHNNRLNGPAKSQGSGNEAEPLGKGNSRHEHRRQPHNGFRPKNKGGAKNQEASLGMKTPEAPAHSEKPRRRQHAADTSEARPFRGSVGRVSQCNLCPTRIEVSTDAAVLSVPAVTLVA
# UniProt Q9NR46: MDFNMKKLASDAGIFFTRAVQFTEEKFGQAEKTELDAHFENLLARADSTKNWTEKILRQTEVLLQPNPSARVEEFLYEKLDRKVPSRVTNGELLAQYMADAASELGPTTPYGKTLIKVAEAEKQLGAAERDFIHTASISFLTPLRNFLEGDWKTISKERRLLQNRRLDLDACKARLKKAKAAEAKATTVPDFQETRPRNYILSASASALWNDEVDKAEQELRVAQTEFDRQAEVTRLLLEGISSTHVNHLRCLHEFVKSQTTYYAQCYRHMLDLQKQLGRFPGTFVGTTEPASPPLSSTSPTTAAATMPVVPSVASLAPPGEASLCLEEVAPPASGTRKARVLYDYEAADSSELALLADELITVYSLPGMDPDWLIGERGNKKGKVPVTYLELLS
# UniProt Q9NR30: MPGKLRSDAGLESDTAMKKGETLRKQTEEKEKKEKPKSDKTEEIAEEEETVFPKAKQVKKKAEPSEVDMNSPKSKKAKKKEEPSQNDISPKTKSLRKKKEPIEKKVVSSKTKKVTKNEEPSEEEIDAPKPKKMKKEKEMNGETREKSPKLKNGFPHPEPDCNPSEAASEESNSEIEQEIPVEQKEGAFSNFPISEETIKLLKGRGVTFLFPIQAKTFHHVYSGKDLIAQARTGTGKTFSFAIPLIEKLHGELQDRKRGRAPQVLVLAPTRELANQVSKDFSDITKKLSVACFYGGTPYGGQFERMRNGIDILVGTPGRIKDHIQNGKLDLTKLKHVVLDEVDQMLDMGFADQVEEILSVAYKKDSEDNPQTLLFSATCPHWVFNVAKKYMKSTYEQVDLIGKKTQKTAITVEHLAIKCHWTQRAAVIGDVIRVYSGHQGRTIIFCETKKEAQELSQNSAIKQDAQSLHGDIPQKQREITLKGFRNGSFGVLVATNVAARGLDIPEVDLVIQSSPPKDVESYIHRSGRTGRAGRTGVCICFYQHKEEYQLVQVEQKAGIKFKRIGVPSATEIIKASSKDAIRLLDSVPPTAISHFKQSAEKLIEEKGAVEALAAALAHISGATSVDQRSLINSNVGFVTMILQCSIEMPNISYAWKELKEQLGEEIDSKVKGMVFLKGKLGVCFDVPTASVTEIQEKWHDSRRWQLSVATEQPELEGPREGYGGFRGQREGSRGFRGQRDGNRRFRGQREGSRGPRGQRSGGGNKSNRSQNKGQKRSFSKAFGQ
# UniProt Q9NQR4: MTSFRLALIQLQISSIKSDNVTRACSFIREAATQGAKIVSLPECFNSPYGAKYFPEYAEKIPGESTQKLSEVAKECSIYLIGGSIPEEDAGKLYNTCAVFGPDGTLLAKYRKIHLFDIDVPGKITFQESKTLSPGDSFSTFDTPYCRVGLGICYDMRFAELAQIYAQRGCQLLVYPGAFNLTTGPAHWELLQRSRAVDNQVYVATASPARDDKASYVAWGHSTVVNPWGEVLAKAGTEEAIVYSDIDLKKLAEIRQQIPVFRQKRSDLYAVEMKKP
# UniProt Q9NVJ2: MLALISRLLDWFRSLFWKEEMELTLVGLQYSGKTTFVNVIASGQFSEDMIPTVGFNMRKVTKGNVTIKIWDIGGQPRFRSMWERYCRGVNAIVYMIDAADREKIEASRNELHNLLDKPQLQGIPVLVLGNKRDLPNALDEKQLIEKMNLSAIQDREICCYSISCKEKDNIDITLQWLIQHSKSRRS
# UniProt Q9NQ31: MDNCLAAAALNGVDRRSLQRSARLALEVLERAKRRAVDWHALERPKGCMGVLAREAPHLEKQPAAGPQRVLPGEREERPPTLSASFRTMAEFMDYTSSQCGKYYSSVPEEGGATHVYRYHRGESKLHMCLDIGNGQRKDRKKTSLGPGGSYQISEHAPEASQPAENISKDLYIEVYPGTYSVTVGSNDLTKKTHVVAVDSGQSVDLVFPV
# UniProt Q9NQW1: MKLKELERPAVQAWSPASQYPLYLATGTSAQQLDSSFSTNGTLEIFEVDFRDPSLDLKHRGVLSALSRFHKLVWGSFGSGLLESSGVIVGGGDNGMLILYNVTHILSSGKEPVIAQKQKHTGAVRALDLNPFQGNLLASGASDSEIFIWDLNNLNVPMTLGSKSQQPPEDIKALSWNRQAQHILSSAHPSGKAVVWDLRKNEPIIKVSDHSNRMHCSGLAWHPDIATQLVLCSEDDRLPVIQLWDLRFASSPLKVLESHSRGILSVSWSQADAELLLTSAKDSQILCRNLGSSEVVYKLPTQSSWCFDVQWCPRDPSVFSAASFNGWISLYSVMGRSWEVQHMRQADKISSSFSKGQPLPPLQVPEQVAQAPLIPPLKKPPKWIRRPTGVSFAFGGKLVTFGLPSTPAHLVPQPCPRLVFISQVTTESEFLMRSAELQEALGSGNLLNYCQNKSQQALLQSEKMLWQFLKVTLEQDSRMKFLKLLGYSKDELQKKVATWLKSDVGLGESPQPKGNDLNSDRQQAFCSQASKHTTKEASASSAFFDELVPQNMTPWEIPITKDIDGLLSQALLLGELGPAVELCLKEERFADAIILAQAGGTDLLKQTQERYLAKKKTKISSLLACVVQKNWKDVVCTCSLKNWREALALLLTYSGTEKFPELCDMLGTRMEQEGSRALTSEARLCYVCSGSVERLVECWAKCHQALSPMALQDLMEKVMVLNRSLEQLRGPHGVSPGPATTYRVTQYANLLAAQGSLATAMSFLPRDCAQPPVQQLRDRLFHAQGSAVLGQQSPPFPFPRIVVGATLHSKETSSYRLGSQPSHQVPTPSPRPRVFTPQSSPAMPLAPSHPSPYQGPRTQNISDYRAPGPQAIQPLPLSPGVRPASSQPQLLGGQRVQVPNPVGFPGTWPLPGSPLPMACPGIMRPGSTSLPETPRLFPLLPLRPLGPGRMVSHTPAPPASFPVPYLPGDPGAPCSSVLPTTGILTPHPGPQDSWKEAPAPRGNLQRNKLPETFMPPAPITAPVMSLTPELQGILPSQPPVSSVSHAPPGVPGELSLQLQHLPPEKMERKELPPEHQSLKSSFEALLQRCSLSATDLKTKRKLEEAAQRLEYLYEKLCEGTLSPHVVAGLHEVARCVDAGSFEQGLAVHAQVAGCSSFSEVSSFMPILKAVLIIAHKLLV
# The list shows a part of the results. Most entries show no effect beyond the scatter of the controls.
# Compound: Cc1nc(Nc2ncc(C(=O)Nc3c(C)cccc3Cl)s2)cc(N2CCN(CCO)CC2)n1 [dasatinib]
# Test: log2 fold change of tryptic peptide abundance, ligand vs vehicle (limited proteolysis) (log2 ratio); higher = more trypsin-susceptible (destabilized)
# Conditions: ligand concentration: 5 uM; sample: K562 cleared lysate
row,Target,log2 fold change
1,"ATAD3A (peptide sequence: VQDAVQQHQQK, peptide start residue: 606) (UniProt Q9NVI7)",1.57
2,"UniProt Q9HCL3 (peptide sequence: LHTGEKPYECKECGK, peptide start residue: 331)",-0.0613
3,"AAAS (peptide sequence: TAFIHHR, peptide start residue: 67) (UniProt Q9NRG9)",0.308
4,"POLR3E (peptide sequence: FSRPESEQAR, peptide start residue: 177) (UniProt Q9NVU0)",0.192
5,"UniProt Q9NP50 (peptide sequence: MFGFHKPK, peptide start residue: 1)",0.343
6,"SACM1L (peptide sequence: SNCMDCLDR, peptide start residue: 387) (UniProt Q9NTJ5)",0.502
7,"EIF2B3 (peptide sequence: SVIGSSCLIK, peptide start residue: 373) (UniProt Q9NR50)",0.122
8,"ZNHIT6 (peptide sequence: SQTGVQILMK, peptide start residue: 397) (UniProt Q9NWK9)",-0.192
9,"MRPL47 (peptide sequence: GLEEFFDDPKNWGQEK, peptide start residue: 63) (UniProt Q9HD33)",0.329
10,"ACSS2 (peptide sequence: TPCPGPFLR, peptide start residue: 73) (UniProt Q9NR19)",-0.225
11,"GLRX2 (peptide sequence: LLPLVHQCYLKK, peptide start residue: 146) (UniProt Q9NS18)",-0.167
12,"SPATS2L (peptide sequence: TPEAPAHSEKPR, peptide start residue: 498) (UniProt Q9NUQ6)",-0.188
13,"FKBP14 (peptide sequence: SHESFQEMDLNDDWK, peptide start residue: 140) (UniProt Q9NWM8)",0.128
14,"SH3GLB2 (peptide sequence: VAQTEFDRQAEVTR, peptide start residue: 223) (UniProt Q9NR46)",0.193
15,"PALMD (peptide sequence: ALYAMEIK, peptide start residue: 172) (UniProt Q9NP74)",0.364
16,"ASF1B (peptide sequence: FHINWDNNMDR, peptide start residue: 149) (UniProt Q9NVP2)",0.208
17,"DDX21 (peptide sequence: STYEQVDLIGK, peptide start residue: 392) (UniProt Q9NR30)",0.106
18,"NIT2 (peptide sequence: KIHLFDIDVPGK, peptide start residue: 112) (UniProt Q9NQR4)",-0.265
19,"UniProt Q9NVJ2 (peptide sequence: DLPNALDEK, peptide start residue: 133)",-0.163
20,"UniProt Q9NUP9 (peptide sequence: VLQSEFCNAVR, peptide start residue: 41)",0.0453
21,"FAM114A2 (peptide sequence: SLTKPLAENEEGEK, peptide start residue: 343) (UniProt Q9NRY5)",0.967
22,"UniProt Q9NQ31 (peptide sequence: YYSSVPEEGGATHVYR, peptide start residue: 103)",-0.0456
23,"KIF15 (peptide sequence: LSLQFEEDKENSSK, peptide start residue: 916) (UniProt Q9NS87)",0.205
24,"UniProt Q9NWM3 (peptide sequence: GGGGGTAAPQELNNSRPAR, peptide start residue: 22)",-0.142
25,"RRAGD (peptide sequence: GLIDYNFHCFR, peptide start residue: 350) (UniProt Q9NQL2)",0.133
26,"MRPS30 (peptide sequence: QYENHIFVGSK, peptide start residue: 277) (UniProt Q9NP92)",-0.834
27,"UniProt Q9NQW1 (peptide sequence: KLKELER, peptide start residue: 2)",0.0816
28,"BRMS1 (peptide sequence: QFSELKEK, peptide start residue: 70) (UniProt Q9HCU9)",0.209
29,"OSGEP (peptide sequence: LVELPYTVK, peptide start residue: 190) (UniProt Q9NPF4)",-0.247
